The list shows a part of the results.
Tests used:
Assay in all cases: glycan array binding signal (z-score within array); higher = stronger binding
Settings in all cases: glycan notation: IUPAC condensed, linker removed
[1] = target: Fuc(a1-2)Gal
Method in brief: (§1)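 Glycan array binding is given as a within-array Z-score, which can be read as non-binding when negative. The arrays, 3228 of them, came from the Consortium for Functional Glycomics database and were retained only where the protein sequence was available. Z-scores were averaged across arrays of the same protein sequence at different concentrations or buffers and across linkers.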

[2] = target: Fuc(a1-2)Gal(b1-3)GalNAc
Method in brief: as §1

[3] = target: Fuc(a1-2)Gal(b1-3)GalNAc(a1-3)[Fuc(a1-2)]Gal(b1-4)Glc
Method in brief: as §1

[4] = target: Fuc(a1-2)Gal(b1-3)GalNAc(a1-3)[Fuc(a1-2)]Gal(b1-4)GlcNAc
Method in brief: as §1

[5] = target: Fuc(a1-2)Gal(b1-3)GalNAc(b1-3)Gal
Method in brief: as §1

[6] = target: Fuc(a1-2)Gal(b1-3)GalNAc(b1-3)Gal(a1-4)Gal(b1-4)Glc
Method in brief: as §1

[7] = target: Fuc(a1-2)Gal(b1-3)GalNAc(b1-4)[Neu5Ac(a2-3)]Gal(b1-4)Glc
Method in brief: as §1

[8] = target: Fuc(a1-2)Gal(b1-3)GlcNAc
Method in brief: as §1

[9] = target: Fuc(a1-2)Gal(b1-3)GlcNAc(b1-2)Man(a1-3)[Fuc(a1-2)Gal(b1-3)GlcNAc(b1-2)Man(a1-6)]Man(b1-4)GlcNAc(b1-4)GlcNAc
Method in brief: as §1

[10] = target: Fuc(a1-2)Gal(b1-3)GlcNAc(b1-2)Man(a1-3)[Fuc(a1-2)Gal(b1-3)GlcNAc(b1-2)Man(a1-6)]Man(b1-4)GlcNAc(b1-4)[Fuc(a1-6)]GlcNAc
Method in brief: as §1

[11] = target: Fuc(a1-2)Gal(b1-3)GlcNAc(b1-3)Gal(b1-4)Glc
Method in brief: as §1

[12] = target: Fuc(a1-2)Gal(b1-3)GlcNAc(b1-3)GalNAc
Method in brief: as §1

[13] = target: Fuc(a1-2)Gal(b1-3)GlcNAc(b1-3)[Fuc(a1-3)[Gal(b1-4)]GlcNAc(b1-6)]Gal(b1-4)Glc
Method in brief: as §1

[14] = target: Fuc(a1-2)Gal(b1-3)GlcNAc(b1-3)[Gal(b1-4)GlcNAc(b1-6)]Gal(b1-4)Glc
Method in brief: as §1

[15] = target: Fuc(a1-2)Gal(b1-3)[Fuc(a1-4)]GlcNAc
Method in brief: as §1

[16] = target: Fuc(a1-2)Gal(b1-3)[Fuc(a1-4)]GlcNAc(b1-2)Man(a1-3)[Fuc(a1-2)Gal(b1-3)[Fuc(a1-4)]GlcNAc(b1-2)Man(a1-6)]Man(b1-4)GlcNAc(b1-4)GlcNAc
Method in brief: as §1

[17] = target: Fuc(a1-2)Gal(b1-3)[Fuc(a1-4)]GlcNAc(b1-3)[Fuc(a1-3)[Gal(b1-4)]GlcNAc(b1-6)]Gal(b1-4)Glc
Method in brief: as §1

[18] = target: Fuc(a1-2)Gal(b1-3)[Fuc(a1-4)]GlcNAc(b1-3)[Gal(b1-4)GlcNAc(b1-6)]Gal(b1-4)Glc
Method in brief: as §1

[19] = target: Fuc(a1-2)Gal(b1-4)Glc
Method in brief: as §1

[20] = target: Fuc(a1-2)Gal(b1-4)Glc6S
Method in brief: as §1

[21] = target: Fuc(a1-2)Gal(b1-4)GlcNAc
Method in brief: as §1

[22] = target: Fuc(a1-2)Gal(b1-4)GlcNAc(b1-2)Man(a1-3)[Fuc(a1-2)Gal(b1-4)GlcNAc(b1-2)Man(a1-6)]Man(b1-4)GlcNAc(b1-4)GlcNAc
Method in brief: as §1

[23] = target: Fuc(a1-2)Gal(b1-4)GlcNAc(b1-2)Man(a1-3)[Fuc(a1-2)Gal(b1-4)GlcNAc(b1-2)Man(a1-6)]Man(b1-4)GlcNAc(b1-4)[Fuc(a1-6)]GlcNAc
Method in brief: as §1

[24] = target: Fuc(a1-2)Gal(b1-4)GlcNAc(b1-2)[Fuc(a1-2)Gal(b1-4)GlcNAc(b1-4)]Man(a1-3)[Fuc(a1-2)Gal(b1-4)GlcNAc(b1-2)Man(a1-6)]Man(b1-4)GlcNAc(b1-4)GlcNAc
Method in brief: as §1

[25] = target: Fuc(a1-2)Gal(b1-4)GlcNAc(b1-3)Gal(b1-4)GlcNAc
Method in brief: as §1

[26] = target: Fuc(a1-2)Gal(b1-4)GlcNAc(b1-3)Gal(b1-4)GlcNAc(b1-3)Gal(b1-4)GlcNAc
Method in brief: as §1

[27] = target: Fuc(a1-2)Gal(b1-4)GlcNAc(b1-3)GalNAc
Method in brief: as §1

[28] = target: Fuc(a1-2)Gal(b1-4)GlcNAc6S
Method in brief: as §1

[29] = target: Fuc(a1-2)Gal(b1-4)[Fuc(a1-3)]GlcNAc
Method in brief: as §1

[30] = target: Fuc(a1-2)Gal(b1-4)[Fuc(a1-3)]GlcNAc(b1-2)Man(a1-3)[Fuc(a1-2)Gal(b1-4)[Fuc(a1-3)]GlcNAc(b1-2)Man(a1-6)]Man(b1-4)GlcNAc(b1-4)GlcNAc
Method in brief: as §1

B1: rPitB (Streptococcus pneumoniae), A0A0I7U739 (protein)
chain: MSEIEIINAKKIYHDVPVIENLNITIPKGSLFTLLGASGCGKTTLLRMIAGFNSIKDGEFYFDDTKINNMEPSKRNIGLVFQNYAIFPHLTVRDNVAFGLMQKKVPKEELIQQTNKYLELMQIAQYAD
glycan array binding signal (z-score) [1]: -0.805 | glycan array binding signal (z-score) [2]: 0.167 | glycan array binding signal (z-score) [3]: 0.302 | glycan array binding signal (z-score) [4]: -0.708 | glycan array binding signal (z-score) [5]: 0.08 | glycan array binding signal (z-score) [6]: 0.358 | glycan array binding signal (z-score) [7]: -0.128 | glycan array binding signal (z-score) [8]: -0.794 | glycan array binding signal (z-score) [9]: 1.04 | glycan array binding signal (z-score) [10]: 0.197 | glycan array binding signal (z-score) [11]: -0.995 | glycan array binding signal (z-score) [12]: -0.687 | glycan array binding signal (z-score) [13]: -0.544 | glycan array binding signal (z-score) [14]: -0.397 | glycan array binding signal (z-score) [15]: -0.496 | glycan array binding signal (z-score) [16]: 0.882 | glycan array binding signal (z-score) [17]: 0.227 | glycan array binding signal (z-score) [18]: 0.281 | glycan array binding signal (z-score) [19]: 0.199 | glycan array binding signal (z-score) [20]: 0.021 | glycan array binding signal (z-score) [21]: 0.65 | glycan array binding signal (z-score) [22]: 0.433 | glycan array binding signal (z-score) [23]: -0.083 | glycan array binding signal (z-score) [24]: 0.316 | glycan array binding signal (z-score) [25]: -0.799 | glycan array binding signal (z-score) [26]: -0.283 | glycan array binding signal (z-score) [27]: 1.03 | glycan array binding signal (z-score) [28]: 0.223 | glycan array binding signal (z-score) [29]: -0.11 | glycan array binding signal (z-score) [30]: 0.584

Source: the supplement of paper PMC8728848
